In patent US9233171B2, “Method of treatment of tumors that are resistant to EGFR antibody therapies by EGFR antibody cytotoxic agent conjugate” (ImmunoGen, Inc., priority 2011, dated 2016):
Some entries share one result that the patent states for a list of compounds.

Tested on: H2228 cells
Assay: cytotoxic activity, H2228
Type: cell-based
Conditions: H2228, at 3E-8 M concentration
Protocol: The cytotoxic assay was performed as follows.
EML4-ALK gene translocation leads to a constitutive activation of ALK kinase and has been identified as a driver mutation in ˜5% of NSCLC adenocarcinoma (reviewed in Castro-Carpeno J. et al., Clin Transl Oncol. 13:774-779 (2011)). […] Unfortunately, ˜40% of EML4-ALK+ tumors are resistant to crizotinib. Additionally, tumors that are sensitive to crizotinib can rapidly develop resistance to the drug (Castro-Carpeno J. et al., Clin Transl Oncol. 13:774-779 (2011)).

B1: huEGFR-7R antibody (antibody, V domains shown)
VH: QVQLVQSGAEVAKPGASVKLSCKASGYTFTSYWMQWVKQRPGQGLECIGTIYPGDGDTTYTQKFQGKATLTADKSSSTAYMQLSSLRSEDSAVYYCARYDAPGYAMDYWGQGTLVTVSS
VL: DIQMTQSPSSLSASVGDRVTITCRASQDINNYLAWYQHKPGKGPKLLIHYTSTLHPGIPSRFSGSGSGRDYSFSISSLEPEDIATYYCLQYDNLLYTFGQGTKLEIKR
- inhibition of tumor growth: up to 35%
